According to PubChem BioAssay AID248 (DTP/NCI, 2004):
The list does not hold the whole screen: it gathers tests that were run many times, whatever their T/C, doses with no T/C, and many T/C values between a quarter and a half above the control. Further doses and runs are listed elsewhere. T/C is the treated group as % of the vehicle group. Some doses have a count of surviving animals in place of a T/C: the source files T/C as zero there, which appears to mark a toxic dose or a test without result, not a measured value. Some survivor counts are full or nearly so, which does not show that the dose was tolerated: survival well below the control is almost never listed, so the zero probably covers shortened survival too. Counts of survivors are from the toxicity check (mostly the fifth day) where no day follows; animals may have died later. Schedules are NCI's codes, read here as Q, the interval in days (D) or hours (H), X, the number of doses. For survival time, this PubChem deposit counts one and a half times the control or more as active, and values a quarter to a half above the control carry no call in these data; other NCI protocols may use other cut-offs. Additions like (4×) count equal records among those shown. Some T/C values are followed by the survivors on the day toxicity was checked, most often the fifth; where none is given, no animal had died by that day. Some doses were run more than once; their values stand side by side, smallest first.

Tested on: L1210 leukemia ip in BDF1 mice, survival T/C
Assay: NCI In Vivo Anticancer Drug Screen. Data for tumor model L1210 Leukemia (intraperitoneal) in B6D2F1 (BDF1) mice
Details: higher T/C = longer survival
[1] = T/C endpoint: mean survival time, dose: 100.0 mg/kg/injection, schedule: Q01DX009 (ip), vehicle: saline
[2] = T/C endpoint: mean survival time, dose: 200.0 mg/kg/injection, schedule: Q01DX001 (ip), vehicle: carboxymethylcellulose (CMC)
[3] = T/C endpoint: mean survival time, dose: 50.0 mg/kg/injection, schedule: Q04DX003 (ip), vehicle: Klucel (hydroxypropylcellulose) (HPC)
[4] = T/C endpoint: mean survival time, dose: 200.0 mg/kg/injection, schedule: Q04DX003 (ip), vehicle: saline
[5] = T/C endpoint: mean survival time, dose: 400.0 mg/kg/injection, schedule: Q04DX003 (ip), vehicle: saline
[6] = T/C endpoint: mean survival time, dose: 400.0 mg/kg/injection, schedule: Q04DX003 (ip), vehicle: Klucel (hydroxypropylcellulose) (HPC)
[7] = T/C endpoint: mean survival time, dose: 400.0 mg/kg/injection, schedule: Q01DX001 (ip), vehicle: saline
[8] = T/C endpoint: mean survival time, dose: 400.0 mg/kg/injection, schedule: Q01DX001 (ip), vehicle: carboxymethylcellulose (CMC)
[9] = T/C endpoint: mean survival time, dose: 400.0 mg/kg/injection, schedule: Q01DX009 (ip), vehicle: saline with Tween-80
[10] = T/C endpoint: mean survival time, dose: 100.0 mg/kg/injection, schedule: Q04DX003 (ip), vehicle: Klucel (hydroxypropylcellulose) (HPC)
[11] = T/C endpoint: mean survival time, dose: 200.0 mg/kg/injection, schedule: Q04DX003 (ip), vehicle: Klucel (hydroxypropylcellulose) (HPC)

Cc1ccc(N=N/C(=N\Nc2ccc(C)cc2)[N+](=O)[O-])cc1
survivor count (T/C endpoint: mean survival time, dose: 75.0 mg/kg/injection, schedule: Q01DX001 (ip), vehicle: acetone): 6 of 6

O=C(Cl)OCCOCCOC(=O)Cl
survivor count [1]: 0 of 6

Cc1ccc(C2=CCCCC2)cc1
survivor count [2]: 2 of 4

C=CC=O
T/C (T/C endpoint: mean survival time, dose: 3.2 mg/kg/injection, schedule: Q01DX001 (ip), vehicle: saline, evaluated on day 5): 103 and 105 % of control
T/C (T/C endpoint: mean survival time, dose: 3.2 mg/kg/injection, schedule: Q01DX001 (ip), vehicle: saline, evaluated on day 45): 103 and 105 % of control
T/C (T/C endpoint: mean survival time, dose: 4.9 mg/kg/injection, schedule: Q01DX001 (ip), vehicle: saline, evaluated on day 5): 99 and 100 % of control
T/C (T/C endpoint: mean survival time, dose: 4.9 mg/kg/injection, schedule: Q01DX001 (ip), vehicle: saline, evaluated on day 45): 100 % of control (2×)
T/C (T/C endpoint: mean survival time, dose: 7.4 mg/kg/injection, schedule: Q01DX001 (ip), vehicle: saline, evaluated on day 5): 99 and 102 % of control
T/C (T/C endpoint: mean survival time, dose: 7.4 mg/kg/injection, schedule: Q01DX001 (ip), vehicle: saline, evaluated on day 45): 100 and 102 % of control
T/C (T/C endpoint: mean survival time, dose: 11.0 mg/kg/injection, schedule: Q01DX001 (ip), vehicle: saline, evaluated on day 5): 101 and 105 % of control
T/C (T/C endpoint: mean survival time, dose: 11.0 mg/kg/injection, schedule: Q01DX001 (ip), vehicle: saline, evaluated on day 45): 101 and 105 % of control
survivor count (T/C endpoint: mean survival time, dose: 12.5 mg/kg/injection, schedule: Q01DX009 (ip), vehicle: saline): 0 of 6
survivor count (T/C endpoint: mean survival time, dose: 15.0 mg/kg/injection, schedule: Q04DX003 (ip), vehicle: saline): 6 of 6
survivor count (T/C endpoint: mean survival time, dose: 25.0 mg/kg/injection, schedule: Q01DX009 (ip), vehicle: Klucel (hydroxypropylcellulose) (HPC)): 0 of 6
survivor count (T/C endpoint: mean survival time, dose: 25.0 mg/kg/injection, schedule: Q01DX009 (ip), vehicle: saline): 0 of 6
survivor count (T/C endpoint: mean survival time, dose: 25.0 mg/kg/injection, schedule: Q04DX003 (ip), vehicle: saline): 0 of 6
survivor count (T/C endpoint: mean survival time, dose: 30.0 mg/kg/injection, schedule: Q04DX003 (ip), vehicle: saline): 6 of 6
survivor count (T/C endpoint: mean survival time, dose: 50.0 mg/kg/injection, schedule: Q01DX009 (ip), vehicle: Klucel (hydroxypropylcellulose) (HPC)): 0 of 6
survivor count (T/C endpoint: mean survival time, dose: 50.0 mg/kg/injection, schedule: Q01DX009 (ip), vehicle: saline): 0 of 6
survivor count [3]: 2 of 6
survivor count (T/C endpoint: mean survival time, dose: 50.0 mg/kg/injection, schedule: Q04DX003 (ip), vehicle: saline): 0 of 6
survivor count (T/C endpoint: mean survival time, dose: 100.0 mg/kg/injection, schedule: Q01DX009 (ip), vehicle: Klucel (hydroxypropylcellulose) (HPC)): 0 of 6
survivor count [1]: 0 of 6
survivor count (T/C endpoint: mean survival time, dose: 100.0 mg/kg/injection, schedule: Q04DX003 (ip), vehicle: saline): 0 of 6
survivor count (T/C endpoint: mean survival time, dose: 200.0 mg/kg/injection, schedule: Q01DX009 (ip), vehicle: saline): 0 of 6
survivor count [4]: 0 of 6
survivor count [5]: 0 of 6

Nc1cc2ccccc2c2c1ccc1ccccc12
survivor count [6]: 3 of 6

Oc1ccc([S+](c2ccc(O)cc2)c2ccc(O)cc2)cc1
survivor count (T/C endpoint: mean survival time, dose: 80.0 mg/kg/injection, schedule: Q01DX001 (ip), vehicle: saline): 2 of 4
survivor count (T/C endpoint: mean survival time, dose: 100.0 mg/kg/injection, schedule: Q01DX001 (ip), vehicle: saline): 0 of 4
survivor count (T/C endpoint: mean survival time, dose: 200.0 mg/kg/injection, schedule: Q01DX001 (ip), vehicle: saline): 0 of 4
survivor count [7]: 0 of 4

COc1ccc(Cl)cc1N1C(=O)C2C(C1=O)C1(Cl)C(Cl)=C(Cl)C2(Cl)C1(Cl)Cl (stereo unspecified)
survivor count (T/C endpoint: mean survival time, dose: 200.0 mg/kg/injection, schedule: Q01DX009 (ip), vehicle: Klucel (hydroxypropylcellulose) (HPC)): 2 of 6
survivor count [6]: 2 of 6

c1ccc(-c2ccns2)cc1
survivor count [8]: 0 of 4

COC1=[C]([Hg][Br])C(OC)OC1OC (stereo unspecified)
survivor count (T/C endpoint: mean survival time, dose: 20.0 mg/kg/injection, schedule: Q01DX009 (ip), vehicle: saline with Tween-80): 3 of 6

CCNC(=O)Oc1ccc(S(=O)(=O)F)cc1Cl
survivor count [2]: 0 of 6
survivor count [8]: 0 of 6

Cc1ccc2c(c1)P(=O)(O)c1cc(Cl)ccc1O2
survivor count (T/C endpoint: median survival time, dose: 500.0 mg/kg/injection, schedule: Q01DX009 (ip), vehicle: water): 5 of 8
survivor count (T/C endpoint: median survival time, dose: 600.0 mg/kg/injection, schedule: Q04DX003 (ip), vehicle: water): 2 of 8
survivor count (T/C endpoint: median survival time, dose: 1000.0 mg/kg/injection, schedule: Q04DX003 (ip), vehicle: water): 1 of 8

O=C1OC2(c3ccccc31)c1ccccc1-c1ccccc12
survivor count (T/C endpoint: mean survival time, dose: 400.0 mg/kg/injection, schedule: Q04DX003 (ip), vehicle: saline with Tween-80): 6 of 6

CCCCCCCCCCCCCCCCNC(=S)NC1CCCCC1
survivor count [9]: 3 of 6

C[N+](C)(CCOC(=O)C1C2CC3OC(=O)C1C3C2)Cc1ccccc1 (stereo unspecified)
survivor count [4]: 0 of 4
survivor count [5]: 0 of 4

C1CCC(NCCNC2CCCCC2)CC1
survivor count (T/C endpoint: mean survival time, dose: 150.0 mg/kg/injection, schedule: Q01DX001 (ip), vehicle: saline): 3 of 6
survivor count (T/C endpoint: mean survival time, dose: 300.0 mg/kg/injection, schedule: Q01DX001 (ip), vehicle: saline): 1 of 6

Oc1ccc(/C=N/Nc2nnc(N/N=C/c3ccc(O)cc3O)c3ccccc23)c(O)c1
T/C (T/C endpoint: mean survival time, dose: 20.0 mg/kg/injection, schedule: Q01DX015 (ip), vehicle: carboxymethylcellulose (CMC)): 128 % of control
survivor count (T/C endpoint: mean survival time, dose: 40.0 mg/kg/injection, schedule: Q01DX009 (ip), vehicle: saline): 4 of 6
T/C (T/C endpoint: mean survival time, dose: 50.0 mg/kg/injection, schedule: Q01DX001 (ip), vehicle: carboxymethylcellulose (CMC)): 127 % of control
survivor count (T/C endpoint: mean survival time, dose: 53.0 mg/kg/injection, schedule: Q01DX015 (ip), vehicle: carboxymethylcellulose (CMC)): 5 of 6
survivor count (T/C endpoint: mean survival time, dose: 89.0 mg/kg/injection, schedule: Q01DX015 (ip), vehicle: carboxymethylcellulose (CMC)): 4 of 6
T/C (T/C endpoint: mean survival time, dose: 178.0 mg/kg/injection, schedule: Q01DX001 (ip), vehicle: carboxymethylcellulose (CMC)): 135 % of control
survivor count (T/C endpoint: mean survival time, dose: 267.0 mg/kg/injection, schedule: Q01DX001 (ip), vehicle: carboxymethylcellulose (CMC)): 3 of 6
T/C [8]: 127 % of control
survivor count [8]: 3 of 6
survivor count [7]: 2 of 6

O=C1NC2(CCCC2)C(=O)N2CCCC12 (stereo unspecified)
survivor count [10]: 3 of 3
survivor count [11]: 3 of 3

CC(C)CCCC(C)C1CCC2C3CC(O)C45CC4CCC5(C)C3CCC12C (stereo unspecified)
survivor count (T/C endpoint: mean survival time, dose: 100.0 mg/kg/injection, schedule: Q04DX002 (ip), vehicle: Klucel (hydroxypropylcellulose) (HPC)): 3 of 3

CN(C(=O)CCC(=O)N(C)c1ccccc1)c1ccccc1
survivor count [9]: 6 of 6

CS(=O)(=O)OCCN(CCOS(C)(=O)=O)c1ccc(C=Nc2ccc(-c3csc(-c4ccc(Cl)cc4)n3)cc2)cc1
T/C [3]: 129 % of control
T/C [10]: 135, 137, 140 % of control
T/C [11]: 125 and 137 % of control [5 of 6 alive]
survivor count [6]: 5 of 6

O=[N+]([O-])c1ccc(\C=C/C=C/C=C/C2(CCl)OCCO2)cc1
survivor count (T/C endpoint: mean survival time, dose: 400.0 mg/kg/injection, schedule: Q01DX001 (ip), vehicle: saline with Tween-80): 3 of 3

CCCNC(=S)NNC(=O)c1ccncc1
survivor count (T/C endpoint: mean survival time, dose: 400.0 mg/kg/injection, schedule: Q04DX002 (ip), vehicle: saline with Tween-80): 0 of 3

CC12C3CCC(C3)C1(O)C2S(=O)(=O)N1CCCCC1 (stereo unspecified)
survivor count (T/C endpoint: mean survival time, dose: 400.0 mg/kg/injection, schedule: Q01DX009 (ip), vehicle: saline): 6 of 6

O=[N+]([O-])c1cc(C(F)(F)F)cc([N+](=O)[O-])c1N/N=C/c1ccc(F)cc1
survivor count (T/C endpoint: mean survival time, dose: 200.0 mg/kg/injection, schedule: Q01DX009 (ip), vehicle: saline with Tween-80): 6 of 6

CC(C)=Cc1ccccc1
survivor count [9]: 4 of 6

COc1ccnc2ccc(C)c([N+](=O)[O-])c12
survivor count (T/C endpoint: mean survival time, dose: 400.0 mg/kg/injection, schedule: Q04DX003 (ip), vehicle: other): 2 of 6
